Experimental data taken from article PMC4351826.
No constants are given. Whether binding was seen depends on the method and setting. Binding seen in cells or lysates may run through a third protein. Here binding means that the protein was enriched with, or labelled near, the bait; the list need not be complete. Sequences can lack the tags named with a protein.

T1: DRB2-Cmyc (Arabidopsis thaliana) (UniProt Q9SKN2)
T1 sequence: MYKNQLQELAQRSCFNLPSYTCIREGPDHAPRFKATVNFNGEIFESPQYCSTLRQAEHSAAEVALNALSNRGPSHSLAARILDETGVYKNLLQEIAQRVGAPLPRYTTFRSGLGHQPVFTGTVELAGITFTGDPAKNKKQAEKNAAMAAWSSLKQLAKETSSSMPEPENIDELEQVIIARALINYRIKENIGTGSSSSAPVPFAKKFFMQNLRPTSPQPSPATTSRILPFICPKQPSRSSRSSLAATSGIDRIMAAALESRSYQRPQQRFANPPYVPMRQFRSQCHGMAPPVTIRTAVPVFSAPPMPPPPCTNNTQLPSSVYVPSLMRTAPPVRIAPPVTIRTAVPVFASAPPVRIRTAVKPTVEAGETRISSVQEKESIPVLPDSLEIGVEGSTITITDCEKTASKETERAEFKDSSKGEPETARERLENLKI


target: T1, DRB2-Cmyc (Arabidopsis thaliana); experiment: affinity purification with mass spectrometry; Cmyc IP (Miltenyi columns) from 1.5 g of mixed floral tissues of the DRB2-Cmyc line, Col-0 as control; SDS-PAGE, specific bands cut, nanoLC-MS/MS

binding | Binder
binds | TPL (TOPLESS) (protein, UniProt Q94AI7 1-1131) MSSLSRELVFLILQFLDEEKFKETVHKLEQESGFFFNMKYFEDEVHNGNWDEVEKYLSGFTKVDDNRYSMKIFFEIRKQKYLEALDKHDRPKAVDILVKDLKVFSTFNEELFKEITQLLTLENFRENEQLSKYGDTKSARAIMLVELKKLIEANPLFRDKLQFPTLRNSRLRTLINQSLNWQHQLCKNPRPNPDIKTLFVDHSCGPPNGARAPSPVNNPLLGGIPKAGGFPPLGAHGPFQPTASPVPTPLAGWMSSPSSVPHPAVSAGAIALGGPSIPAALKHPRTPPTNASLDYPSADSEHVSKRTRPMGISDEVNLGVNMLPMSFSGQAHGHSPAFKAPDDLPKTVARTLSQGSSPMSMDFHPIKQTLLLVGTNVGDIGLWEVGSRERLVQKTFKVWDLSKCSMPLQAALVKEPVVSVNRVIWSPDGSLFGVAYSRHIVQLYSYHGGEDMRQHLEIDAHVGGVNDISFSTPNKQLCVITCGDDKTIKVWDAATGVKRHTFEGHEAPVYSVCPHYKENIQFIFSTALDGKIKAWLYDNMGSRVDYDAPGRWCTTMAYSADGTRLFSCGTSKDGESFIVEWNESEGAVKRTYQGFHKRSLGVVQFDTTKNRYLAAGDDFSIKFWDMDAVQLLTAIDGDGGLQASPRIRFNKEGSLLAVSGNENVIKIMANSDGLRLLHTFENISSESSKPAINSIAAAAAAAATSAGHADRSANVVSIQGMNGDSRNMVDVKPVITEESNDKSKIWKLTEVSEPSQCRSLRLPENLRVAKISRLIFTNSGNAILALASNAIHLLWKWQRNERNATGKATASLPPQQWQPASGILMTNDVAETNPEEAVPCFALSKNDSYVMSASGGKISLFNMMTFKTMATFMPPPPAATFLAFHPQDNNIIAIGMDDSTIQIYNVRVDEVKSKLKGHSKRITGLAFSNVLNVLVSSGADAQLCVWNTDGWEKQRSKVLPLPQGRPNSAPSDTRVQFHQDQAHFLVVHETQLAIYETTKLECMKQWAVRESLAPITHATFSCDSQLVYASFMDATVCVFSSANLRLRCRVNPSAYLPASLSNSNVHPLVIAAHPQEPNMFAVGLSDGGVHIFEPLESEGKWGVAPPAENGSASGAPTAPSVGASASDQPQR
binds | CAND1 (CULLIN ASSOCIATED AND …ON DISSOCIATED) (protein, UniProt Q8L5Y6 1-1219) MANLQVSGILEKFQMTGKDKDYRYMATSDLLNELNKDSFKIDLDLEVRLSSIILQQLDDVAGDVSGLAVKCLAPLVKKVGEERIVEMTNKLCDKLLHGKDQHRDTASIALRTVVAQIAPTLAPSILVTLTPQMIGGISGQGMSSGIKCECLEIMCDVVQKYGSLMTDDHEKLLNTLLLQLGCNQATVRKKTVTCIASLASSLSDDLLAKATVEVVKNLSNRNAKSEITRTNIQMIGALCRAVGYRFGTHLGNTVPVLINYCTSASENDEELREYSLQALESFLLRCPRDISPYCDEILNLTLEYISYDPNFTDNMEEDTDNETLEDEEDDESANEYTDDEDASWKVRRAAAKCLAGLIVSRSEMLTKVYQEACPKLIDRFKEREENVKMDVFNTFIDLLRQTGNVTKGQTDTDESSPKWLLKQEVSKIVKSINRQLREKSVKTKVGAFSVLRELVVVLPDCLADHIGSLVPGIERALNDKSSTSNLKIEALVFTKLVLASHAPPVFHPYIKALSSPVLAAVGERYYKVTAEALRVCGELVRVVRPSTAGMGFDFKPFVHPIYNAIMSRLTNQDQDQEVKECAITCMGLVISTFGDQLRAELPSCLPVLVDRMGNEITRLTAVKAFSVIATSPLHINLSCVLDHLIAELTGFLRKANRVLRQATLITMNTLVTAYGDKIGSEAYEVILVELSSLISVSDLHMTALALELCCTLMTGKSCSENISLAVRNKVLPQALTLVKSPLLQGQALLDLQKFFEALVYHANTSFYTLLESLLSCAKPSPQSGGVPKQALYSIAQCVAVLCLAAGDKNCSSTVKMLMEILKDDSGTNSAKQHLALLSLGEIGRRKDLSAHAGIETIVIESFQSPFEEIKSAASYALGNIAVGNLSNYLPFILDQIDNQQKKQYILLHSLKEVIVRQSVDKADFQNSSVEKILALLFNHCESEEEGVRNVVAECLGKMALIEPEKLVPALQVRTTSPAAFTRATVVTAVKYSVVERPEKLDEIIFPQISSFLMLIKDGDRHVRRAAVSALSTFAHYKPNLIKGLLPELLPLLYDQTVIKKELIRTVDLGPFKHVVDDGLELRKAAFECVFTLVDSCLDQVNPSSFIVPFLKSGLEDHYDLKMLCHLILSLLADKCPSAVLAVLDSLVEPLHKTISFKPKQDAVKQEHDRNEDMIRSALRAISSLDRINGVDYSHKFKGLMGDMKRSVPLWEKFQTIRNE
binds | PRMT4B (PROTEIN ARGININE … 4B) (enzyme, UniProt Q84W92 1-535) MEVSSVKKLEQLEYSLESVTDLSSSSVSSSSPAVATFSYVDGVTELRFLQSDSTHCFNFDLASAQLFKLGPVHFICVSDGSSSSEEKSFSKGVNIKFKNEKDSKDFCESFEEWRNDSVVQGSSLQNGTVSANKSKFDNKIEASSAKMYFHYYGQLLHQQNMLQDYVRTGTYYAAVMENHSDFAGRVVVDVGAGSGILSMFAAQAGAKHVYAVEASEMAEYARKLIAGNPLFADRITVIKGKVEDIELPEKADILISEPMGTLLVNERMLESYVIARDRFMTPKGKMFPTVGRIHMAPFSDEFLFIEMANKAMFWQQQNYYGVDLTPLYGSAHQGYFSQPVVDAFDPRLLVASPMFHMIDFTQMKEEDFYEIDIPLKFTASMCTRMHGLACWFDVLFDGSTVQRWLTTAPGAPTTHWYQIRCVLSQPIYVMAGQEITGRLHLIAHSAQSYTIDLTLSAKMWGPGASQGGILQSSTCKFDLKEPYYRMSQPQAYPVAQEPPLQPQPELSTQQDIQTPNDELEEELLQQLPQNPSAQL
binds | HDA19/HD1 (HISTONE … 19/1) (enzyme, UniProt O22446 1-501) MDTGGNSLASGPDGVKRKVCYFYDPEVGNYYYGQGHPMKPHRIRMTHALLAHYGLLQHMQVLKPFPARDRDLCRFHADDYVSFLRSITPETQQDQIRQLKRFNVGEDCPVFDGLYSFCQTYAGGSVGGSVKLNHGLCDIAINWAGGLHHAKKCEASGFCYVNDIVLAILELLKQHERVLYVDIDIHHGDGVEEAFYATDRVMTVSFHKFGDYFPGTGHIQDIGYGSGKYYSLNVPLDDGIDDESYHLLFKPIMGKVMEIFRPGAVVLQCGADSLSGDRLGCFNLSIKGHAECVKFMRSFNVPLLLLGGGGYTIRNVARCWCYETGVALGVEVEDKMPEHEYYEYFGPDYTLHVAPSNMENKNSRQMLEEIRNDLLHNLSKLQHAPSVPFQERPPDTETPEVDEDQEDGDKRWDPDSDMDVDDDRKPIPSRVKREAVEPDTKDKDGLKGIMERGKGCEVEVDESGSTKVTGVNPVGVEEASVKMEEEGTNKGGAEQAFPPKT
binds | WD40 containing protein At3g18060 (protein, UniProt Q9LV35 1-609) MELSETYACVPSTERGRGILISGNSKSDTILYTNGRSVVTLDLNNPLKVSIYGEHAYPATVARYSPNGEWIASGDVSGTVRIWGAYNDHVLKNEFKVLAGRIDDLQWSADGMRIVASGDGKGKSLVRAFMWDSGSNVGEFDGHSRRVLSCAIKPTRPFRIVTCGEDFLVNFYEGPPFKFKLSSREHSNFVNCVRFAPDGSKFITVSSDKKGIIYDGKTCEILGELSSDDGHKGSIYAVSWSPDGKQVLTVSADKSAKIWDISDNGSGSLNTTLNCPGSSGGVDDMLVGCLWQNDHIVTVSLGGTISIFSASDLDKSPFQFSGHMKNVSSLAVLKGNADYILSGSYDGLICKWMLGRGFCGKLQRTQNSQIKCFAAHEEEIVTSGYDNKISRISYKDDQCTNEESIDIGNQPKDLSLAPLSPDLLLVTFESGVVFLRDGKVVSTINLGFIVTALAVTPDGTEAVIGGQDGKLHLYSINGDSLTEEAVLERHRGAISVIRYSPDLSMFASADLNREAVVWDRVSREMKLKNMLYHSARINCLAWSPNSTMVATGSLDTCVIVYEVDKPASSRMTIKGAHLGGVYGLGFADDSHVVSSGEDACIRVWSFTPQ
binds | MSI4 (MULTICOPY SUPPRESSOR OF IRA1 4) (protein, UniProt O22607 1-507) MESDEAAAVSPQATTPSGGTGASGPKKRGRKPKTKEDSQTPSSQQQSDVKMKESGKKTQQSPSVDEKYSQWKGLVPILYDWLANHNLVWPSLSCRWGPQLEQATYKNRQRLYLSEQTDGSVPNTLVIANCEVVKPRVAAAEHISQFNEEARSPFVKKYKTIIHPGEVNRIRELPQNSKIVATHTDSPDVLIWDVETQPNRHAVLGAANSRPDLILTGHQDNAEFALAMCPTEPFVLSGGKDKSVVLWSIQDHITTIGTDSKSSGSIIKQTGEGTDKNESPTVGPRGVYHGHEDTVEDVAFSPTSAQEFCSVGDDSCLILWDARTGTNPVTKVEKAHDADLHCVDWNPHDDNLILTGSADNTVRLFDRRKLTANGVGSPIYKFEGHKAAVLCVQWSPDKSSVFGSSAEDGLLNIWDYDRVSKKSDRAAKSPAGLFFQHAGHRDKVVDFHWNASDPWTIVSVSDDCETTGGGGTLQIWRMSDLIYRPEEEVVAELEKFKSHVMTCASKP
binds | WD40 containing protein At3g63460 (protein, UniProt Q8L611 1-1104) MACIKGVGRSASVALAPDAPYMAAGTMAGAVDLSFSSSANLEIFKLDFQSDDRDLPLVGEIPSSERFNRLAWGRNGSGSEEFALGLIAGGLVDGNIDLWNPLSLIGSQPSENALVGHLSVHKGPVRGLEFNAISSNLLASGADDGEICIWDLLKPSEPSHFPLLKGSGSATQGEISFISWNRKVQQILASTSYNGTTVIWDLRKQKPIINFADSVRRRCSVLQWNPNVTTQIMVASDDDSSPTLKLWDMRNIMSPVREFTGHQRGVIAMEWCPSDSSYLLTCAKDNRTICWDTNTAEIVAELPAGNNWNFDVHWYPKIPGVISASSFDGKIGIYNIEGCSRYGVEENNFGTAPLKAPKWYKRPVGASFGFGGKLVSCHARAPAKGTSSILSEVFLHSLVTEQSLVSRTSEFEAAIENGDMTSLRGLCEKKSEETESEEEKETWGLLKIMFEEEGTSRTKLISHLGFTLPVAEKDQAVDGLSSDLNGIRLEDTAADALDLDDSNEAAAFAMDNGEDFFNNFPAKPDTPVSTSAKDFMPSDTDFSTKGEETQEMQEEEEESSDPVFDNAIQRALIVGDYKEAVDQCITANKMADALVIAHVGGTALWESTREKYLKTSSAPYMKVVSAMVNNDLRSLIYTRSHKFWKETLALLCTFAQGEQWTTLCDALASKLMAAGNTLAAVLCYICAGNVDRTVEIWSRSLANERDGRSYAELLQDLMEKTLVLALATGNKKFSASLCKLFESYAEILASQGLLTTAMKYLKVLDSGGLSPELSILRDRISLSAEPETNTTASGNTQPQSTMPYNQEPTQAQPNVLANPYDNQYQQPYTDSYYVPQVSHPPMQQPTMFMPHQAQPAPQPSFTPAPTSNAQPSMRTTFVPSTPPALKNADQYQQPTMSSHSFTGPSNNAYPVPPGPGQYAPSGPSQLGQYPNPKMPQVVAPAAGPIGFTPMATPGVAPRSVQPASPPTQQAAAQAAPAPATPPPTVQTADTSNVPAHQKPVIATLTRLFNETSEALGGARANTTKKREIEDNSRKLGALFVKLNSGDISKNAADKLAQLCQALDNNDFSTALQIQVLLTTSEWDECNFWLATLKRMMVKARQNVR
